In US20230312680A1:
No constants are given. Whether binding was seen depends on the method and setting. A result given as binding can be weak or reduced; the word gives no strength. Ends that are not written are not given here.

Molecular target: HLA-B*07:02 (human)
Assay: UV-ligand exchange, b2m ELISA; grade of exchange yield

Binder | binding
RPIVPGPLL [… (SEQ ID No 134)] | binds
YPRTITPGM [… (SEQ ID No 128)] | binds
SPSSPMSTF [… (SEQ ID No 145)] | binds
SPASRSISL [… (SEQ ID No 118)] | binds
SPTFHLTL [SPTFHLTL (SEQ ID No 33)] | binds
RPAPFEVVF [… (SEQ ID No 39)] | binds
YPGFPQSQY [… (SEQ ID No 122)] | binds
SPQSMSNTL [… (SEQ ID No 139)] | binds
SPFSAEEANSL [… (SEQ ID No 136)] | binds
LPRPGAVL [LPRPGAVL (SEQ ID No 304)] | binds
IPRPEVQAL [… (SEQ ID No 146)] | binds
GPREALSRL [… (SEQ ID No 149)] | binds
KPSESIYSAL [… (SEQ ID No 123)] | binds
VPVYILLDEM [… (SEQ ID No 125)] | binds
SPMATTSTL [… (SEQ ID No 138)] | binds
RVRSRISNL [… (SEQ ID No 41)] | binds
VPDSGATATAY [… (SEQ ID No 293)] | binds
MPNLPSTTSL [… (SEQ ID No 133)] | binds
FPDNQRPAL [… (SEQ ID No 35)] | binds
YPTEHVQF [YPTEHVQF (SEQ ID No 298)] | binds
FPFQPGSV [FPFQPGSV (SEQ ID No 317)] | binds
APRPASSL [APRPASSL (SEQ ID No 129)] | binds
KPGTSYRVTL [… (SEQ ID No 40)] | binds
SPNKGTLSV [… (SEQ ID No 32)] | binds
RPAMNYDKL [… (SEQ ID No 120)] | binds

Binder | binding
SPSPVSSTL [… (SEQ ID No 144)] | binds
SPRTEASSAVL [… (SEQ ID No 140)] | binds
KPYGGSGPL [… (SEQ ID No 148)] | binds
EPKTATVL [EPKTATVL (SEQ ID No 316)] | binds
YPLRGSSI [YPLRGSSI (SEQ ID No 296)] | binds
LPSDSHFKITF [… (SEQ ID No 124)] | binds
SPMTSLLTSGL [… (SEQ ID No 141)] | binds
RPLFQKSSM [… (SEQ ID No 37)] | binds
RVRSTISSL [… (SEQ ID No 135)] | binds
SPHPVTALLTL [… (SEQ ID No 38)] | binds
APLPRPGAVL [… (SEQ ID No 119)] | binds
SPGATSRGTL [… (SEQ ID No 137)] | binds
IPGPAQSTI [… (SEQ ID No 132)] | binds
APRWFPQPTVV [… (SEQ ID No 147)] | binds
TPGLRETSI [… (SEQ ID No 142)] | binds
LPRGPLASLL [… (SEQ ID No 34)] | binds
APAAWLRSA [… (SEQ ID No 36)] | binds
APRAGSQVV [… (SEQ ID No 127)] | binds
SPAMTSTSF [… (SEQ ID No 143)] | binds
KPGPEDKL [KPGPEDKL (SEQ ID No 126)] | binds
FPRLVGPDF [… (SEQ ID No 130)] | binds
APTEDLKAL [… (SEQ ID No 131)] | binds
VPNQSSESL [… (SEQ ID No 121)] | binds
YPLRGSSIF [… (SEQ ID No 294)] | binds

Results, then the binder that gave them:

binding | Binder
binds | GPRNAQRVL [… (SEQ ID No 325)]
binds | SPRRSPRISF [… (SEQ ID No 301)]
binds | SPMDTFLLI [… (SEQ ID No 321)]
binds | APVIFSHSA [… (SEQ ID No 306)]
binds | LPYGPGSEAAAF [… (SEQ ID No 307)]
binds | HPGSSALHY [… (SEQ ID No 299)]
binds | VPSEIDAAF [… (SEQ ID No 326)]
binds | TPWAESSTKF [… (SEQ ID No 305)]
binds | LPMWKVTAF [… (SEQ ID No 303)]
binds | FPMSPVTSV [… (SEQ ID No 320)]
binds | SPLPVTSLI [… (SEQ ID No 327)]
binds | FPNRLNLEA [… (SEQ ID No 318)]
binds | IPMAAVKQAL [… (SEQ ID No 300)]
binds | SPDPSKHLL [… (SEQ ID No 322)]
binds | SPAEPSVYATL [… (SEQ ID No 319)]
binds | FPQSQYPQY [… (SEQ ID No 309)]
binds | KVKSDRSVF [… (SEQ ID No 313)]
binds | EPVTSSLPNF [… (SEQ ID No 328)]
binds | SPRENFPDTL [… (SEQ ID No 315)]
binds | LPYFREFSM [… (SEQ ID No 312)]
binds | TVREASGLL [… (SEQ ID No 297)]
binds | RPMPNLRSV [… (SEQ ID No 323)]
binds | FPAMTESGGMIL [… (SEQ ID No 329)]
binds | RPLFYVVSL [… (SEQ ID No 311)]
binds | YPLRGSSIFGL [… (SEQ ID No 295)]
binds | VPDQPHPEI [… (SEQ ID No 314)]
binds | RVEEVRALL [… (SEQ ID No 302)]
